Test results: PubChem BioAssay AID651664 (NMMLSC, 2012)
Hit rate of the full screen: of about 1,800 compounds, fewer than 10 were called active.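 How the source made its calls: active means inhibition of granule release above a set limit; inactive means the rest.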 This is one part of the list.

Assay: LAMP-1 surface externalization blockers in TALL-104 cells – cell-based, flow cytometry, validation set (AID 651664)
Conditions: TALL-104 LAMP-1 externalization, at 15.2 µM, hits give high values, stimulated with thapsigargin and PMA

SMILES	inhibition
Cn1c(OCc2ccco2)nc2c1c(=O)n(Cc1ccc(Cl)c(Cl)c1)c(=O)n2C	inactive: -1.3%
COc1cc(CNCCc2ccccc2)ccc1OCC(=O)NC(C)(C)C	inactive: -3%
Cc1cccc(CS(=O)(=O)Cc2ccc(C(=O)NCCN3CCCCC3C)o2)c1 (configuration not stated)	inactive: -3.7%
CC(=O)NC1C(=O)Nc2c(C)cc(C)cc21 (configuration not stated)	inactive: -0.4%
Cc1ccccc1-n1nnc2c(=O)oc3ccccc3c21	inactive: 1.6%
COC(=O)C1=C(N)Oc2cc(C)n(Cc3ccco3)c(=O)c2C1c1cccc(Cl)c1 (configuration not stated)	inactive: -1.7%
CCOc1ccc(N=C2NC(=O)S/C2=C\c2ccc(O)cc2)cc1	inactive: -1%
CCOC(=O)c1ccc(N2C(=O)CC(C3CCCO3)C2=O)cc1 (configuration not stated)	inactive: 3.6%
OC(C#Cc1ccccn1)c1cccs1 (configuration not stated)	inactive: -1%
CC(=O)Nc1cccc(Oc2ccc3c(c2)C(=O)N(CCC(=O)O)C3=O)c1	inactive: 0.5%
CCOC(=O)c1ccc(NC(=O)C2(c3ccccc3)CCOCC2)cc1	inactive: -4%
CCCc1ccc(C(C)NC(=O)c2cnccn2)cc1 (configuration not stated)	inactive: 2.4%
C/C(=C1/SC(=S)N(CCC(=O)O)C1=O)c1ccc(O)cc1	inactive: 5.2%
CCn1c(=O)c2c3c(sc2n2c(=S)[nH]nc12)CCC3	inactive: 1%
COc1cccc2[nH]c3c(=O)n(CCN(C)C)cnc3c12	inactive: -1.4%
Cc1nc(SCC(=O)Nc2ccc(N3CCOCC3)cc2)nc(C)c1C	inactive: 4.1%
COc1cccc(C(C(=O)NC2CCCC2)N(Cc2ccccc2OC)C(=O)c2ccco2)c1 (configuration not stated)	inactive: -0.5%
Cc1c(OCc2ccccc2)c(=O)ccn1Cc1ccc(Cl)cc1	inactive: -0.7%
COc1ccc(NC(=O)c2ccccc2NC(=O)CSc2ccc(Cl)cc2)cc1	inactive: 1%
O=C(NCCCN1CCN(c2ccccc2F)CC1)C1CCN(S(=O)(=O)N2CCOCC2)CC1	inactive: -0.9%
CCCCN(N=Nc1nonc1OC)c1nonc1OC	inactive: -2.9%
COc1ccc(/C(O)=C2/C(=O)C(=O)N(CCN(C)C)C2c2ccc(OC)c(OC)c2)c(C)c1 (configuration not stated)	inactive: -0.5%
CCOC(=O)c1nn(-c2ccc(Cl)cc2)c2nc(Nc3ccccc3)cc(=O)n12	inactive: 0.4%
Cc1cccc2cc(COC(=O)COc3ccccc3)c(=O)[nH]c12	inactive: -1.6%
Cc1sc(NC(=O)c2ccco2)nc1-c1ccccc1	inactive: 2.7%
CCOC(=O)C1CCCN(Cc2nc(N)nc(Nc3ccccc3)n2)C1 (configuration not stated)	inactive: -2.8%
c1coc(-c2nc3nc4ccccc4n3nc2-c2ccco2)c1	inactive: 1%

Given with bars between the fields: entries from further up
SMILES | inhibition
Cc1cccc(CS(=O)(=O)Cc2ccc(C(=O)NCCN3CCCCC3C)o2)c1 (configuration not stated) | inactive: -3.7%
OC(C#Cc1ccccn1)c1cccs1 (configuration not stated) | inactive: -1%
